# According to the supplement of paper PMC8728848:
# This is one part of the list.
# How the values were obtained:
# Test in all cases: glycan array binding signal (z-score within array); higher = stronger binding
# Conditions in all cases: glycan notation: IUPAC condensed, linker removed
# [1] = biological target: Gal(b1-4)GlcNAc(b1-3)Gal(b1-4)Glc
# Summary of the method: (§1)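 Columns mapping to the same glycan were averaged after glycan names were converted to IUPAC-condensed notation. The data come from 3228 arrays in the Consortium for Functional Glycomics database, limited to those with an available protein sequence. Binding is reported as a within-array Z-score averaged across arrays of one protein sequence and across linkers.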
# [2] = biological target: Gal(b1-4)GlcNAc(b1-3)Gal(b1-4)GlcNAc
# Summary of the method: as §1
# [3] = biological target: Gal(b1-4)GlcNAc(b1-3)Gal(b1-4)GlcNAc(b1-3)Gal(b1-4)GlcNAc
# Summary of the method: as §1
# [4] = biological target: Gal(b1-4)GlcNAc(b1-3)Gal(b1-4)[Fuc(a1-3)GlcNAc(b1-6)]Gal(b1-4)Glc
# Summary of the method: as §1
# [5] = biological target: Gal(b1-4)GlcNAc(b1-3)Gal(b1-4)[Fuc(a1-3)]GlcNAc(b1-3)Gal(b1-4)[Fuc(a1-3)]GlcNAc
# Summary of the method: as §1
# [6] = biological target: Gal(b1-4)GlcNAc(b1-3)GalNAc
# Summary of the method: as §1
# [7] = biological target: Gal(b1-4)GlcNAc(b1-3)[Gal(b1-4)GlcNAc(b1-6)]Gal(b1-4)GlcNAc
# Summary of the method: as §1
# [8] = biological target: Gal(b1-4)GlcNAc(b1-3)[Gal(b1-4)GlcNAc(b1-6)]GalNAc
# Summary of the method: as §1
# [9] = biological target: Gal(b1-4)GlcNAc(b1-3)[GlcNAc(b1-6)]Gal(b1-4)GlcNAc
# Summary of the method: as §1
# [10] = biological target: Gal(b1-4)GlcNAc(b1-6)Gal(b1-4)GlcNAc
# Summary of the method: as §1
# [11] = biological target: Gal(b1-4)GlcNAc(b1-6)GalNAc
# Summary of the method: as §1
# [12] = biological target: Gal(b1-4)GlcNAc(b1-6)[Gal(b1-3)]GalNAc
# Summary of the method: as §1
# [13] = biological target: Gal(b1-4)GlcNAc6P
# Summary of the method: as §1
# [14] = biological target: Gal(b1-6)Gal
# Summary of the method: as §1
# [15] = biological target: Gal3S(b1-3)GalNAc
# Summary of the method: as §1
# [16] = biological target: Gal3S(b1-3)GlcNAc
# Summary of the method: as §1
# [17] = biological target: Gal3S(b1-3)[Fuc(a1-4)]GlcNAc
# Summary of the method: as §1
# [18] = biological target: Gal3S(b1-4)Glc
# Summary of the method: as §1
# [19] = biological target: Gal3S(b1-4)Glc6S
# Summary of the method: as §1
# [20] = biological target: Gal3S(b1-4)GlcNAc
# Summary of the method: as §1
# [21] = biological target: Gal3S(b1-4)GlcNAc6S
# Summary of the method: as §1
# [22] = biological target: Gal3S(b1-4)[Fuc(a1-3)]Glc
# Summary of the method: as §1
# [23] = biological target: Gal3S(b1-4)[Fuc(a1-3)]Glc6S
# Summary of the method: as §1
binder,measurement,setting,value
"Latrophilin-3 (Homo sapiens), Q9HAR2 (protein) MWPSQLLIFMMLLAPIIHAFSRAPIPMAVVRRELSCESYPIELRCPGTDVIMIESANYGRTDDKICDSDPAQMENIRCYLPDAYKIMSQRCNNRTQCAVVAGPDVFPDPCPGTYKYLEVQYECVPYKVEQKVFLCPGLLKGVYQSEHLFESDHQSGAWCKDPLQASDKIYYMPWTPYRTDTLTEYSSKDDFIAGRPTTTYKLPHRVDGTGFVVYDGALFFNKERTRNIVKFDLRTRIKSGEAIIANANYHDTSPYRWGGKSDIDLAVDENGLWVIYATEQNNGKIVISQLNPYTLRIEGTWDTAYDKRSASNAFMICGILYVVKSVYEDDDNEATGNKIDYIYNTDQSKDSLVDVPFPNSYQYIAAVDYNPRDNLLYVWNNYHVVKYSLDFGPLDSRSGQAHHGQVSYISPPIHLDSELERPSVKDISTTGPLGMGSTTTSTTLRTTTLSPGRSTTPSVSGRRNRSTSTPSPAVEVLDDMTTHLPSASSQIPALEESCEAVEAREIMWFKTRQGQIAKQPCPAGTIGVSTYLCLAPDGIWDPQGPDLSNCSSPWVNHITQKLKSGETAANIARELAEQTRNHLNAGDITYSVRAMDQLVGLLDVQLRNLTPGGKDSAARSLNKAMVETVNNLLQPQALNAWRDLTTSDQLRAATMLLHTVEESAFVLADNLLKTDIVRENTDNIKLEVARLSTEGNLEDLKFPENMGHGSTIQLSANTLKQNGRNGEIRVAFVLYNNLGPYLSTENASMKLGTEALSTNHSVIVNSPVITAAINKEFSNKVYLADPVVFTVKHIKQSEENFNPNCSFWSYSKRTMTGYWSTQGCRLLTTNKTHTTCSCNHLTNFAVLMAHVEVKHSDAVHDLLLDVITWVGILLSLVCLLICIFTFCFFRGLQSDRNTIHKNLCISLFVAELLFLIGINRTDQPIACAVFAALLHFFFLAAFTWMFLEGVQLYIMLVEVFESEHSRRKYFYLVGYGMPALIVAVSAAVDYRSYGTDKVCWLRLDTYFIWSFIGPATLIIMLNVIFLGIALYKMFHHTAILKPESGCLDNIKSWVIGAIALLCLLGLTWAFGLMYINESTVIMAYLFTIFNSLQGMFIFIFHCVLQKKVRKEYGKCLRTHCCSGKSTESSIGSGKTSGSRTPGRYSTGSQSRIRRMWNDTVRKQSESSFITGDINSSASLNREGLLNNARDTSVMDTLPLNGNHGNSYSIASGEYLSNCVQIIDRGYNHNETALEKKILKELTSNYIPSYLNNHERSSEQNRNLMNKLVNNLGSGREDDAIVLDDATSFNHEESLGLELIHEESDAPLLPPRVYSTENHQPHHYTRRRIPQDHSESFFPLLTNEHTEDLQSPHRDSLYTSMPTLAGVAATESVTTSTQTEPPPAKCGDAEDVYYKSMPNLGSRNHVHQLHTYYQLGRGSSDGFIVPPNKDGTPPEGSSKGPAHLVTSL",glycan array binding signal (z-score),[1],-0.24
same,glycan array binding signal (z-score),[2],-0.111
same,glycan array binding signal (z-score),[3],-0.064
same,glycan array binding signal (z-score),[4],-0.749
same,glycan array binding signal (z-score),[5],-0.225
same,glycan array binding signal (z-score),[6],0.339
same,glycan array binding signal (z-score),[7],3.02
same,glycan array binding signal (z-score),[8],-0.21
same,glycan array binding signal (z-score),[9],0.968
same,glycan array binding signal (z-score),[10],-0.576
same,glycan array binding signal (z-score),[11],-0.681
same,glycan array binding signal (z-score),[12],-0.627
same,glycan array binding signal (z-score),[13],-0.196
same,glycan array binding signal (z-score),[14],-0.409
same,glycan array binding signal (z-score),[15],-0.522
same,glycan array binding signal (z-score),[16],-0.3
same,glycan array binding signal (z-score),[17],0.473
same,glycan array binding signal (z-score),[18],0.224
same,glycan array binding signal (z-score),[19],0.343
same,glycan array binding signal (z-score),[20],-0.493
same,glycan array binding signal (z-score),[21],0.227
same,glycan array binding signal (z-score),[22],-0.273
same,glycan array binding signal (z-score),[23],-0.622
